These are yes or no findings as the source states them, for the method shown. Some binding calls cover weakened binding; strength is not graded here.
Target: Bacterial β-galactosidase (Calbiochem, Catalog #345788) (bacterial) [β-galactosidase: P00722]
Test: inferred from β-galactosidase activity staining of brain slices after sequential intravenous injection of the peptide and then the enzyme

binding: binds
Binder: KKKKKKKKKKKKKKKKLRVRLASHLRKLRKRLLRDA [K16ApoE carrier peptide]

Source: patent publication US20120107243A1
